Data as given in PubChem BioAssay AID743454 (Peter MacCallum Cancer Centre, 2014).
The deposit covers about 18,000 reagents; this is an unselected part. 450 of them (2.5%) were called active. 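Single biological run; no consistent viability z cut-off exists, so the class columns, not z-scores, define the calls.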 Unmarked entries are inactive.

- Assay: 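Knock-downs lowering viability or raising caspase 3/7 activity in vorinostat-treated resistant cells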 (primary screen)
- Cells: human HCT116-VR colon cancer cells, selected for vorinostat resistance
- Reagent: siRNA pool against human genes, 40 nM siRNA pool
- Timing: vorinostat for 24 h, read-out about 72 h after transfection
- Treatment: vorinostat at 2.5 µM final
- Measured: 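Two measures, CellTiter-Fluor viability and luminescent caspase 3/7 activity, each as fold change against same-plate mock wells, mean of duplicates, then screen-wide robust z-score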
- Direction: viability robust z-score: higher = more viable cells than screen typical; caspase robust z-score: higher = more caspase 3/7 activity than screen typical
- Hit rule: 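a knock-down is a hit when classed RV1 or RV2 for lowered viability, or CA1 or CA2 for caspase activation; those lethal without drug were dropped; hits were retested singly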

PPP1R26 (protein phosphatase 1 regulatory subunit 26): viability hit class = no change; caspase hit class = no change; viability robust z-score = -1; caspase robust z-score = 0.74
PBRM1 (polybromo 1): viability hit class = no change; caspase hit class = no change; viability robust z-score = 0.86; caspase robust z-score = -0.06
PTGES3 (prostaglandin E synthase 3): viability hit class = no change; caspase hit class = no change; viability robust z-score = -0.3; caspase robust z-score = 0.81
CETN1 (centrin 1): viability hit class = no change; caspase hit class = no change; viability robust z-score = -0.38; caspase robust z-score = 3.64
SMCO4 (single-pass membrane protein with coiled-coil domains 4): viability hit class = no change; caspase hit class = no change; viability robust z-score = -0.13; caspase robust z-score = 2.59
HCLS1 (hematopoietic cell-specific Lyn substrate 1): viability hit class = no change; caspase hit class = no change; viability robust z-score = -0.73; caspase robust z-score = -0.22
PIGR (polymeric immunoglobulin receptor): viability hit class = no change; caspase hit class = no change; viability robust z-score = -1.84; caspase robust z-score = 4.01
MUCL3 (mucin like 3): viability hit class = no change; caspase hit class = no change; viability robust z-score = 0.3; caspase robust z-score = 0.39
RALYL (RALY RNA binding protein like): viability hit class = no change; caspase hit class = no change; viability robust z-score = 1.23; caspase robust z-score = 0.27
SAMD4A (sterile alpha motif domain containing 4A): viability hit class = no change; caspase hit class = no change; viability robust z-score = 0.66; caspase robust z-score = -0.6
COL23A1 (collagen type XXIII alpha 1 chain): viability hit class = no change; caspase hit class = no change; viability robust z-score = 0.28; caspase robust z-score = -1.25
SIDT1 (SID1 transmembrane family member 1): viability hit class = no change; caspase hit class = no change; viability robust z-score = 0.46; caspase robust z-score = -0.46

Records listed so far whose target name begins with P or p:
PPP1R26 (protein phosphatase 1 regulatory subunit 26): viability hit class = no change; caspase hit class = no change; viability robust z-score = -1; caspase robust z-score = 0.74
PBRM1 (polybromo 1): viability hit class = no change; caspase hit class = no change; viability robust z-score = 0.86; caspase robust z-score = -0.06
PTGES3 (prostaglandin E synthase 3): viability hit class = no change; caspase hit class = no change; viability robust z-score = -0.3; caspase robust z-score = 0.81
PIGR (polymeric immunoglobulin receptor): viability hit class = no change; caspase hit class = no change; viability robust z-score = -1.84; caspase robust z-score = 4.01
